# Assay results taken from patent publication US20160257759A1.
# No constants are given. Whether binding was seen depends on the method and setting.
# Columns and labels:
# [1] = target: biotinylated human delta-like 2 (DLL2) (human); test: ELISA, IgG (0.3 ug/ml) captured on anti-human lambda plate, biotinylated antigen titrated, neutravidin-AP
# [2] = target: biotinylated human delta-like 2 (DLL2) (human); test: condition: 1000 (relative amount of antigen, no unit); capture ELISA: B10 IgG captured on anti-human lambda, serially diluted biotinylated DLL2, neutravidin-AP, PNPP, absorbance
binder,measurement,setting,value
"JG1B10 (antibody, V domains shown) VH: EVQLVESGGGLVQPGGSLRLSCAASGSTFSSYGMHWVRQAPGKGLEWVAVIWYDGSNKYYADSVKGRFTISRDNSKNTLYLQMNSLRAEDTAVYYCARGYNHDYWGQGTLVTVSS VL: LPVLTQPASVSGSPGQSITISCTGTSSDVGGYNYVSWYQQHPGKAPKLMIYDVSNRPSGVSNRFSGSKSGNTASLTISGLQAEDEADYYCSSYTSSSTYVFGIGTKLTVL",binding,[1],no binding
same,binding,[2],no binding
